# Experimental data taken from PubChem BioAssay AID2517 (National Center for Advancing Translational Sciences (NCATS), 2010).
# The chains behind the UniProt entries cited, without tags or fusion partners.
# UniProt P27695, whole entry, looked up: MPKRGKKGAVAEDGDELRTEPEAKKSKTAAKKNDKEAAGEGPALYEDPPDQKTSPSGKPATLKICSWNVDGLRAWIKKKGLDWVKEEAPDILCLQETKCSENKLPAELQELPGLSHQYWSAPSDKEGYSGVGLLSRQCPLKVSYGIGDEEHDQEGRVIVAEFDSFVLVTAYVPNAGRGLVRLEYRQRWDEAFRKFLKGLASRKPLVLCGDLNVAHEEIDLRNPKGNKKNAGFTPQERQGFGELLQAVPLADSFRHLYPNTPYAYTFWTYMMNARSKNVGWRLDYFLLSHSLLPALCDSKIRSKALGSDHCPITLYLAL
# The campaign covered roughly 350,000 compounds. About 1,200 (0.34%) were called active. The shares of active, inactive and inconclusive entries below differ from those in the screen. Calls come from the whole dose curve; as a rule, active = well fitted inhibition curve with a large enough effect; inconclusive = small, poorly fitted or top-dose-only effect; inactive = no such curve, though single readings can be large or run the other way. Where the call is inconclusive, the potency comes from a doubtful curve fit.
# Target: DNA repair nuclease/redox regulator APEX1 (Homo sapiens) (UniProt P27695)
# Test: qHTS Assay for Inhibitors of the Human Apurinic/apyrimidinic Endonuclease 1 (APE1); note: nearly all actives have a fitted effect of over 55% in size;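 for activity change, negative = inhibition: plate controls were vehicle for no effect and reference inhibitor for full effect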
# Conditions: recombinant APE1, TAMRA/BHQ-2 abasic DNA cleavage fluorescence; activity change, negative = inhibition: at 65.8 µM (top of the series)
# Procedure, shortened: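 Quantitative HTS: incision of a TAMRA/BHQ-2 double-stranded substrate bearing a tetrahydrofuran abasic site by 0.75 nM APE1 raises fluorescence. Substrate 50 nM final, added after 15 min compound preincubation at room temperature; progress as third-minus-first kinetic read difference.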
# Potency is the fitted concentration of half-maximal effect.
SMILES,Potency,"activity change, negative = inhibition"
COc1ccc(-n2c(=O)c3c(C)c(C)sc3n(Cc3ccc(F)cc3)c2=O)c(OC)c1,"inconclusive: 28.2 µM [inhibitor, single point]",–
CCNc1nc(NCC)n2c(SCC(=O)Nc3ccc(NC(C)=O)cc3)nnc2n1,"inconclusive: 18.9 µM [inhibitor, single point]",–
CC(C)OC(=O)C(C(=O)C(F)(F)F)c1cc(NS(=O)(=O)c2ccc3ccccc3c2)c2ccccc2c1O (configuration not stated),inactive,–
COc1ccc(C2=CSC3=NCCN23)cc1F,"inconclusive: 3.98 µM [inhibitor, single point]",–
O=C(Nc1cccc(F)c1)N1CCC2(CC1)CCN(S(=O)(=O)c1ccccc1)CC2,"inconclusive: 25.1 µM [inhibitor, single point]",–
CN(Cc1ccc(Cl)cc1)C(=O)CCl,"inconclusive: 44.7 µM [inhibitor, single point]",–
CC1(C)Cc2ccccc2C(NNC(=O)c2ccccc2)=N1,"inconclusive: 28.2 µM [inhibitor, single point]",–
Cc1nc2ccc(NC(=S)N3CCOCC3)cc2nc1C,"inconclusive: 25.1 µM [inhibitor, partial curve]",–
COc1ccc(S(=O)(=O)N2CCOCC2)cc1NC(=O)COC(=O)c1[nH]c(C)c(C(C)=O)c1C,inactive,–
COCCN1C=C(C(=O)OC)C(c2ccc3c(c2)OCO3)C(C(=O)OC)=C1,inactive,–
CC(C)C1CC(CCN)(c2ccccc2)CCO1 (configuration not stated),"inconclusive: 0.0708 µM [inhibitor, full curve, poor fit]",–
CSc1nnc2n(C)c3c(c(=O)n12)C1(CCCC1)Cc1ccccc1-3,"inconclusive: 3.16 µM [inhibitor, single point]",–
CCOC(=O)C1CCN(S(=O)(=O)c2ccc(-n3cnnn3)c(C)c2)CC1,"inconclusive: 0.794 µM [inhibitor, partial curve]",–
CCCNC(=O)OC[C@@H]1O[C@H](CCO/N=C(\C)CCC(=O)OC[C@@H]2O[C@H](C#Cc3ccccc3)C=C[C@@H]2Oc2ccc(C)cc2)C=C[C@@H]1Oc1ccc(OC)cc1,"inconclusive: 3.16 µM [inhibitor, single point]",–
C[C@H]1Cc2c(-c3ccccc3)nc3c(c2CO1)CN(S(=O)(=O)c1ccc(C#N)cc1)CC3,–,inactive: -9.13% [at 12.4 µM]
COc1ccc(Sc2ccc(NC(=O)c3ccccc3Cl)cc2C#N)cc1,"inconclusive: 10 µM [inhibitor, partial curve]",–
COCCNc1ncnc2ccc(-c3cccc(NS(C)(=O)=O)c3)cc12,"inconclusive: 3.98 µM [inhibitor, partial curve]",–

# Shown with tabs: part of the list above.
SMILES	Potency	activity change, negative = inhibition
COc1ccc(S(=O)(=O)N2CCOCC2)cc1NC(=O)COC(=O)c1[nH]c(C)c(C(C)=O)c1C	inactive	–
COCCN1C=C(C(=O)OC)C(c2ccc3c(c2)OCO3)C(C(=O)OC)=C1	inactive	–
CC(C)C1CC(CCN)(c2ccccc2)CCO1 (configuration not stated)	inconclusive: 0.0708 µM [inhibitor, full curve, poor fit]	–
CSc1nnc2n(C)c3c(c(=O)n12)C1(CCCC1)Cc1ccccc1-3	inconclusive: 3.16 µM [inhibitor, single point]	–
